According to patent US20070071762A1, “COMPREHENSIVE DIAGNOSTIC TESTING PROCEDURES FOR PERSONALIZED ANTICANCER CHEMOTHERAPY (PAC)” (CCC Diagnostics, LLC, priority 2005, published 2007):
Converted amounts (≈) assume the structure as drawn. Like-named read-outs stand apart in the source and are kept apart here.

Key:
[1] = test system: MDA-MB231 cells; assay: cells; conditions: Homo sapiens, MDA-MB-231, 72 h
[2] = test system: HCC 38 cells; assay: WST-8 growth inhibition of cultured breast cancer cells; assay type: cell-based; conditions: Homo sapiens, Tamoxifen, HCC38 cells, 0.5% FCS, 72 hours post treatment
Protocol: (§1) In another example, the expression of thymidylate synthase (TS) was correlated with the response of breast cancer cells to the chemotherapeutic drug 5-fluorouracil (5-FU). TS is a key enzyme in DNA biosynthesis and has been postulated to play a major role in predicting the response to 5-FU based chemotherapy. Experiments were conducted to examine this relationship. […] Doses ranged from 5-300 μg/ml.

[3] = test system: HCC 2218 cells; assay: as above; assay type: cell-based; conditions: Homo sapiens, Tamoxifen, HCC2218 cells, 0.5% FCS, 72 hours post treatment
Protocol: as §1

[4] = test system: T47D cells; assay: as above; assay type: cell-based; conditions: Homo sapiens, Tamoxifen, 0.5% FCS, 72 hours post treatment
Protocol: as §1

[5] = test system: MCF-7 cells; assay: as above; assay type: cell-based; conditions: Homo sapiens, MCF7, Tamoxifen, 0.5% FCS, 72 hours post treatment
Protocol: as §1

[6] = test system: SKBR-3 cells; assay: as above; assay type: cell-based; conditions: Homo sapiens, SK-BR-3, Tamoxifen, SKBR3 cells, 0.5% FCS, 72 hours post treatment
Protocol: as §1

[7] = test system: HCC 202 cells; assay: as above; assay type: cell-based; conditions: Homo sapiens, HCC202, Tamoxifen, 0.5% FCS, 72 hours post treatment
Protocol: as §1

IC50 ([1]; read-out: IC50-1): 42.5 µg/mL (≈ 114 µM)
IC50 ([1]; read-out: IC50-2): 42.5 µg/mL (≈ 114 µM)
IC50 ([2]; read-out: IC50-1): > 50 µg/mL
IC50 ([2]; read-out: IC50-2): > 50 µg/mL
IC50 ([3]; read-out: IC50-1): > 50 µg/mL
IC50 ([3]; read-out: IC50-2): > 50 µg/mL
IC50 ([4]; read-out: IC50-1): 28.3 µg/mL (≈ 76.2 µM)
IC50 ([4]; read-out: IC50-2): 21.8 µg/mL (≈ 58.7 µM)
IC50 ([5]; read-out: IC50-1): 9.8 µg/mL (≈ 26.4 µM)
IC50 ([5]; read-out: IC50-2): 13 µg/mL (≈ 35 µM)
IC50 ([6]; read-out: IC50-1): 41.6 µg/mL (≈ 112 µM)
IC50 ([6]; read-out: IC50-2): 35 µg/mL (≈ 94.2 µM)
IC50 ([7]; read-out: IC50-1): > 50 µg/mL
IC50 ([7]; read-out: IC50-2): > 50 µg/mL
SMILES: CC/C(=C(\c1ccccc1)c1ccc(OCCN(C)C)cc1)c1ccccc1 [Tamoxifen, tamoxifen]
